No constants are given. Whether binding was seen depends on the method and setting. Some binding calls cover weakened binding; strength is not graded here.

Sequences of proteins named here, by UniProt entry; tags and fusion partners are left off. Residues count along the entry.
UniProt P05113, residues 20-134: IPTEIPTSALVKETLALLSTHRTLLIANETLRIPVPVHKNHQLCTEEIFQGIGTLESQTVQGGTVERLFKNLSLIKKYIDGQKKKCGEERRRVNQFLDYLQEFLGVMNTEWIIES

This is an account of results in patent US20190062438A1 (CSL, published 2019).

The test concerns the target T1, human CD131 (human, UniProt P32927 17-897).
T1 sequence: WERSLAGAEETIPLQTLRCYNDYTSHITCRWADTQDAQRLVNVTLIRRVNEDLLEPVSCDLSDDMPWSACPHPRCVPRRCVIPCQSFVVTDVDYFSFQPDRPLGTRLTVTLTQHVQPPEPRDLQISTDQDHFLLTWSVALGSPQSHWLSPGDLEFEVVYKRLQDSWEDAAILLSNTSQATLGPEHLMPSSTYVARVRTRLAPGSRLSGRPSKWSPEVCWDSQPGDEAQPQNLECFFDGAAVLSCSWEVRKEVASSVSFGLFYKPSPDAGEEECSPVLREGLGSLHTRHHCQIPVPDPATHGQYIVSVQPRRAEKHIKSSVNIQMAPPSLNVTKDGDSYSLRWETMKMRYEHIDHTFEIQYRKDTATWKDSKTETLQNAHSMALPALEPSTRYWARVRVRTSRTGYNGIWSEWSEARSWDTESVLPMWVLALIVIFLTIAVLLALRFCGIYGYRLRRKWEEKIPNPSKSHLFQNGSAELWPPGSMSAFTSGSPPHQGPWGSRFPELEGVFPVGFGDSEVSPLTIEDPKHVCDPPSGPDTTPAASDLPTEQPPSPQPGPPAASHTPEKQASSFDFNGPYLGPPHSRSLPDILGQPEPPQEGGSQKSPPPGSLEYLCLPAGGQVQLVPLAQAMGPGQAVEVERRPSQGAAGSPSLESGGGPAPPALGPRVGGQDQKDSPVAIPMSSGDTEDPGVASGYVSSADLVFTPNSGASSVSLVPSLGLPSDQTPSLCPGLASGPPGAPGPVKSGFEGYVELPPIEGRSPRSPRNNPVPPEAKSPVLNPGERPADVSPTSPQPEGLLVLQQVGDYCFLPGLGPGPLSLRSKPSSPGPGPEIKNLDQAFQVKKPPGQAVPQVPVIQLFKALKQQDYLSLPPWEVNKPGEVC
The experiment in a line: competition binding on TF-1 cells: cells pre-incubated with the cytokine, then equilibrated with 85 pM radio-iodinated 9A2-VR24.29; cell-bound c.p.m. Here is the method: Each point is the mean of duplicate determinations of cell-bound radioiodinated cytokine and error bars represent the standard deviation.
Cytokines and antibodies were radio-iodinated using Pierce Pre-Coated Iodination tubes (Thermo Scientific) according to the manufacturer's instructions. MAb binding to cells expressing hβc was determined by incubating 1-2×10⁶ cells with radio-iodinated mAb at a range of concentrations at 23° C. for 1-2 hours with gentle mixing. Cell suspensions were then centrifuged through fetal calf serum (FCS) and radioactivity associated with the cells pellets was assessed by counting in a Wizard² 2470 Automatic Gamma Counter (Perkin Elmer, Rowville, VIC, Australia). Non-specific binding was assessed for each radio-iodinated mAb in the presence of at least a 500-fold excess of unlabeled mAb. […] Competition binding assays were performed essentially as previously described (41). Briefly 1-2×10⁶ cells were incubated with mAb or cytokine competitor at a range of concentrations at 4° C. for 45 minutes with gentle mixing. Radio-iodinated cytokine or mAb was then added and the mixture incubated at 23° C. for a further 1-2 hours with gentle mixing. Cell suspensions were then centrifuged through FCS and radioactivity associated with the cells pellets assessed by counting.

With “recombinant human IL-5 (from UniProt P05113 20-134) (ligand)”, the binding entry is “binds”.
